Experimental data: PubChem BioAssay AID504786 (Drosophila RNAi Screening Center, 2011)

Purpose: 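Knock-downs reducing HIF reporter induction by the iron chelator DFO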 (primary screen)
Cells: Drosophila S2 cells with a stable HIF luciferase reporter
Knock-down reagent: long dsRNA against Drosophila genes, about 0.2 µg dsRNA per well of a 384-well plate
Duration: three days of knock-down, then 20 h of DFO before reading
Treatment: desferrioxamine (DFO) at 100 µM, an iron chelator that mimics hypoxia, for 20 h
Detection: 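HIF reporter luminescence in cells given 100 µM DFO for 20 h, using the mouse ldh-a hypoxia-response element, scored as per-plate z-scores; higher means greater loss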
Scale: z-score: higher = stronger loss of HIF reporter signal
The screen tested about 21,000 reagents; below is an unselected part of those that have a named target and a result. 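Primary screen; positive scores mean lost reporter signal, so the sign may be inverted from the usual convention.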 Names joined by + are all predicted targets of the reagent.

With CG5326 [SID104193360], how do the results read?
z-score, replicate 1: -0.1; z-score, replicate 2: -0.4

What is on record for CG5326 [SID104195562]?
z-score, replicate 1: -0.2; z-score, replicate 2: -0.2

What did the screen give for CG30275 [SID104183955]?
z-score, replicate 1: -0.4; z-score, replicate 2: -0.3

For key [SID104184077], how do the results read?
z-score, replicate 1: -0.2; z-score, replicate 2: -0.4

What did the screen give for Gale [SID104188026]?
z-score, replicate 1: -0.2; z-score, replicate 2: 0.2

Which result is listed for Brca2 [SID104184011]?
z-score, replicate 1: -0.3; z-score, replicate 2: -0.4

What did the screen give for Brca2 [SID104184012]?
z-score, replicate 1: -0.3; z-score, replicate 2: -0.4

With Oseg6 [SID104185858], how do the results read?
z-score, replicate 1: -0.4; z-score, replicate 2: -0.5

What did the screen give for CG10646 [SID104189556]?
z-score, replicate 1: -0.6; z-score, replicate 2: -0.3

Which result is listed for Hey [SID104187232]?
z-score, replicate 1: 1.2; z-score, replicate 2: 5.2

Which result is listed for CG17726 [SID104195047]?
z-score, replicate 1: -1.2; z-score, replicate 2: -0.4

What did the screen give for CG32026 [SID104188742]?
z-score, replicate 1: 0; z-score, replicate 2: 0.1

For CG8860 [SID104187083], what was measured?
z-score, replicate 1: 0; z-score, replicate 2: 1.8

For nst [SID104189547], what does the deposit list?
z-score, replicate 1: -0.4; z-score, replicate 2: -0.5

How did the screen score CG9521 [SID104199988]?
z-score, replicate 1: -0.3; z-score, replicate 2: -0.6

A run of entries taken from the entries so far, as a working copy:
CG5326 [SID104193360]: z-score, replicate 1 = -0.1; z-score, replicate 2 = -0.4
CG5326 [SID104195562]: z-score, replicate 1 = -0.2; z-score, replicate 2 = -0.2

The listing continues:
For CG2256 [SID104198012], what does the deposit list?
z-score, replicate 1: -0.3; z-score, replicate 2: -0.4

How did the screen score CG17169 [SID104200697]?
z-score, replicate 1: -0.3; z-score, replicate 2: -0.3

With IntS4 [SID104197602], what was measured?
z-score, replicate 1: 0.6; z-score, replicate 2: 0.7

How did the screen score CG34265 [SID104187822]?
z-score, replicate 1: 0; z-score, replicate 2: -0.4

What is on record for CG5376 [SID104195574]?
z-score, replicate 1: 1.5; z-score, replicate 2: 0.1

For nmd [SID104182648], how do the results read?
z-score, replicate 1: -0.2; z-score, replicate 2: -0.9

How did the screen score swa [SID104198634]?
z-score, replicate 1: -0.3; z-score, replicate 2: -0.4

With Erasp [SID104186903], how do the results read?
z-score, replicate 1: -0.1; z-score, replicate 2: -0.2

Which result is listed for CG10920 [SID104197557]?
z-score, replicate 1: -0.1; z-score, replicate 2: -0.1

With CG4854 [SID104195455], what does the deposit list?
z-score, replicate 1: 0.6; z-score, replicate 2: 0.1

With mod(mdg4) + pre-mod(mdg4)-U [SID104193268], how do the results read?
z-score, replicate 1: -0.1; z-score, replicate 2: 0.1

Which result is listed for drm [SID104180069]?
z-score, replicate 1: -0.3; z-score, replicate 2: -0.3
